Data reported in US7045613.
These are yes or no findings as the source states them, for the method shown. Some entries that bind do so weakly or less than the wild type.

Chains of the proteins cited; added tags and fusions are not shown. Lines headed by an entry give the natural chain unless they say otherwise; changes in a name come on top.
UniProt P04386: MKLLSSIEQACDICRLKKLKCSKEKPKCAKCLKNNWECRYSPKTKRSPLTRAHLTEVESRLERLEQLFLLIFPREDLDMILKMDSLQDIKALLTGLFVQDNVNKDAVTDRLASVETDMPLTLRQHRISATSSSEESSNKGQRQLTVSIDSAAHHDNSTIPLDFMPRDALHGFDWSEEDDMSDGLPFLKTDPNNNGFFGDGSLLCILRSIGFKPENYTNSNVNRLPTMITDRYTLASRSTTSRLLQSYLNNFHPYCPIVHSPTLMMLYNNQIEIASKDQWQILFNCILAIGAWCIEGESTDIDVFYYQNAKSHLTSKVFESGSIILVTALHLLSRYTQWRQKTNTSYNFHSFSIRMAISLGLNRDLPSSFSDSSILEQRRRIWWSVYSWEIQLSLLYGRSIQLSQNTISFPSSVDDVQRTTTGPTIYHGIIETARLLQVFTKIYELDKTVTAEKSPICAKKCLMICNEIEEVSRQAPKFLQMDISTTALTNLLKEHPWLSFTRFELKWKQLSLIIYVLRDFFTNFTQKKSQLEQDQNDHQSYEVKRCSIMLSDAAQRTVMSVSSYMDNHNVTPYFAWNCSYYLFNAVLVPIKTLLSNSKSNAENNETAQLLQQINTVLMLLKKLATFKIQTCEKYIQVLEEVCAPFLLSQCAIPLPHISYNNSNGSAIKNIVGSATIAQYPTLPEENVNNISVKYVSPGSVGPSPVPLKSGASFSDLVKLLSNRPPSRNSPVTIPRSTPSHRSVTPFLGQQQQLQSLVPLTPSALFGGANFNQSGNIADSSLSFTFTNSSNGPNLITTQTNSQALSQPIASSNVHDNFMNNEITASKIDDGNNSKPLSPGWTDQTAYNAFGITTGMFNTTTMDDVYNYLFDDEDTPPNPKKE

Target: T1, IKK-α two-hybrid clone (human) (UniProt O15111)
T1 sequence: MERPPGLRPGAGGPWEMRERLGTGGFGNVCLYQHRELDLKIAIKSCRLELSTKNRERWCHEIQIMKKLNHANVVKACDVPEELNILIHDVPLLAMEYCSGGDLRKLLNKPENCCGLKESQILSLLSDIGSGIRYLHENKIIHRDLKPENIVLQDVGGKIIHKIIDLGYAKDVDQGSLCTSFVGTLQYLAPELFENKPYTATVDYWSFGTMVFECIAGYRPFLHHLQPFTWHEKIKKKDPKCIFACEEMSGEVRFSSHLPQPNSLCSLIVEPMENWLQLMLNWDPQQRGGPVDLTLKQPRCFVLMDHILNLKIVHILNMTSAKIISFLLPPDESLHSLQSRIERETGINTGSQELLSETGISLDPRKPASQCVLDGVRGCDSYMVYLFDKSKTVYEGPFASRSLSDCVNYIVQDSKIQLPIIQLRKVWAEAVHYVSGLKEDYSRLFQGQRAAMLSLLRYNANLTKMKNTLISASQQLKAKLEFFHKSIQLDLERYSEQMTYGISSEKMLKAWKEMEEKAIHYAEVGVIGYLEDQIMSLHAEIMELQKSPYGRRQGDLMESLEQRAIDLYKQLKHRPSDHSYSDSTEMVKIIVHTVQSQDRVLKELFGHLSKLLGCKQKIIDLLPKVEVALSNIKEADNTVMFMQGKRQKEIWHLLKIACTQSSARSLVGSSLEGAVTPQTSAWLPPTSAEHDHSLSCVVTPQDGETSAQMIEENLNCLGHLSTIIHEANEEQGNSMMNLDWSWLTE
Assay: yeast two-hybrid, GAL4 DBD-NIK bait, his and lacZ reporters, with retransformation

- binding: binds
Substance: NIK fused to the DNA-binding domain of the yeast transcription factor GAL4 (from UniProt P04386 1-147; Q99558 1-947)
